For eight molecules, binding results are on record in patent WO2005095457A2 (dated 2005).

Test [1] has as its target human Oncostatin M (hOSM) (human). Briefly: gp130 inhibition ELISA, CHO supernatant. (ELISA stands for enzyme-linked immunosorbent assay.)
Test [2] has the same target. Briefly: gp130 inhibition ELISA, purified antibodies.
Test [3] has the same target. As to the kind of experiment: gp130 inhibition ELISA.
The target is the same in test [4]. Briefly: gp130 inhibition ELISA, human OSM.
For test [5] the target is unchanged. As to the kind of experiment: gp130 ELISA.
The target is the same in test [6]. Briefly: gp130 inhibition ELISA and KB cell assay.
Test [7] has as its target Human recombinant OSM (R&D Systems, non-glycosylated) (human). Briefly: gp130-OSM ELISA.

Numbering of substitutions follows the chain as printed. These are yes or no findings as the source states them, for the method shown. Binding calls can cover weak binding; strength is not graded here.

B1: humanised 15E10 antibody B4L2 (antibody, V domains shown)
VH: QVQLVESGGGVVQPGRSLRLSCAASGFSLTNYGVHWVRQAPGKGLEWVAVIWRGGSTDYNAAFMSRLTISKDNSKNTLYLQMNSLRAEDTAVYYCAKSPNSNFYWYFDVWGRGTLVTVSS
VL: EIVLTQSPATLSLSPGERATLSCSGSSSVSYMYWYQQKPGQAPRLLIEDTSNLASGIPARFSGSGSGTDYTLTISNLEPEDFAVYYCQQWSSYPPTFGQGTKLEIKR
In the case of B1, the binding result in test [1] and in test [2] was “binds” in each case.

B2: humanised 15E10 antibody B3L2 (antibody, human IgG1, kappa, V domains shown)
VH: B1 VH with L67F
VL: B1 VL
notes: Human IgG1 wild type / kappa; purified from CHO; also called B3L2 wt; 15E10-B3L2
Take B2: the binding result in test [2] and in test [3] was “binds” in each case.

B3: humanised 15E10 antibody B4L1 (antibody, V domains shown)
VH: B1 VH
VL: EIVLTQSPATLSLSPGERATLSCSGSSSVSYMYWYQQKPGQAPRLLIYDTSNLASGIPARFSGSGSGTDFTLTISNLEPEDFAVYYCQQWSSYPPTFGQGTKLEIK
For the molecule B3, the binding result in test [1] was “binds”.

B4: 10D3 murine antibody (antibody, mouse IgG1, V domains shown)
VH: EVQLQQSGPELVKPGASVKISCKASGYIFTDYNMDWVKQSHGKKLEWIGDINPNNGGTIDNQKFKDKATLTVDKSSSTAYMELRSLTSEDTAVYYCARGIYYYGSHYFDYWGQGTTLTVSS
VL: QIVLTQSPAIMSASPGEKVTMTCSATSSVSVMHWFQKKSGTSPKRWIYDTSKLASGVPTRFSGSGSGTSYSLTISSMEAEDTATYYCQQWSSNPLTFGSGTKLELK
With B4, the binding entry in test [4] is “binds”.

B5: 10D3 chimaeric antibody (antibody, human IgG1, V domains shown)
VH: B4 VH
VL: B4 VL
notes: expressed in CHO; also called chimaeric 10D3; chimeric 10D3
In the case of B5, the binding entry in test [5], in test [6] and in test [3] was “binds” throughout.

B6: 15E10 murine antibody (antibody, mouse IgG2a, V domains shown)
VH: QVQLKQSGPGLVQPSQSLSITCTVSGFSLTNYGVHWVRQSPGKGLEWLGVIWRGGSTDYNAAFMSRLSITKDNSRSQVFFKMNSLQADDTAIYYCAKSPNSNFYWYFDVWGTGTTVTVSS
VL: QIVLTQSPTIMSASPGEKVTMTCSGSSSVSYMYWYQEKPGSSPRLLIEDTSNLASGVPARFSGSGSGTSYSLTISRMEAEDAATYYCQQWSSYPPTFGSGTKLEIK
notes: also called clone 15E10; parent murine 15E10
On to B6, for which the binding entry in test [4] and in test [7] was “binds” throughout.

B7: 15E10 chimaeric antibody (antibody, human IgG1, V domains shown)
VH: B6 VH
VL: B6 VL
notes: expressed in CHO; also called chimaeric 15E10; 15E10 chimaera
For B7, the binding result in test [6] and in test [3] was “binds” each time.

B8: humanised 15E10 antibody B2L2 (antibody, V domains shown)
VH: QVQLVESGGGVVQPGRSLRLSCAASGFSLTNYGVHWVRQAPGKGLEWVAVIWRGGSTDYNAAFMSRFTISRDNSKNTLYLQMNSLRAEDTAVYYCAKSPNSNFYWYFDVWGRGTLV
VL: B3 VL with Y48E, F70Y
On to B8, for which, in test [2], the binding result was “binds”.
